From PubChem BioAssay AID1671190 (National Center for Advancing Translational Sciences (NCATS), 2021)
Screen size: about 580,000 compounds; about 6,100 (1.1%) were called active. This list was built around the results that the source calls inconclusive (neither active nor inactive); the mix of calls is not that of the screen. Calls come from the whole dose curve; as a rule, active = well fitted inhibition curve with a large enough effect; inconclusive = small, poorly fitted or top-dose-only effect, or another doubt; inactive = no such curve, though single readings can be large or run the other way. A potency beside an inconclusive call is a rough fit, not a confirmed value.

Sequences of proteins named here, by UniProt entry; tags and fusion partners are left off.
UniProt P18054, whole entry, looked up: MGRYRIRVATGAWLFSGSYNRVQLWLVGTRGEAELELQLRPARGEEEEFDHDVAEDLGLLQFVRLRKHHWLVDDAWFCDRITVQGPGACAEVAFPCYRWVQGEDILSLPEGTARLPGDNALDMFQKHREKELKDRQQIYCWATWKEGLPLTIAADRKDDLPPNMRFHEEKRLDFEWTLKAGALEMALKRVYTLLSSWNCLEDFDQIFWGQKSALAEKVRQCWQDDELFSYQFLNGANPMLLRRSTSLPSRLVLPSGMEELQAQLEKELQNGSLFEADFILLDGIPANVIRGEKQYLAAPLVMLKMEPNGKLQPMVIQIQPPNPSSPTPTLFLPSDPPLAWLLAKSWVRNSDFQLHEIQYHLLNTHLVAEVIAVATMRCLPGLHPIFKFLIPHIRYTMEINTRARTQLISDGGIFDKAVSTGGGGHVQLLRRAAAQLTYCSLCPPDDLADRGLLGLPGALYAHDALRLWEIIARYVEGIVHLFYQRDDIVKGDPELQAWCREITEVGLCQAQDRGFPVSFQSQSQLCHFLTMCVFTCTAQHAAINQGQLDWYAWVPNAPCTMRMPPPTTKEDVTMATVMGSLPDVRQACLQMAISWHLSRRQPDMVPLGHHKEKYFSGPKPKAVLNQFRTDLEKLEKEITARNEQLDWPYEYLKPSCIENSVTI

Each compound was assayed against Polyunsaturated fatty acid lipoxygenase ALOX12 (Homo sapiens) (UniProt P18054) (assay: Primary qHTS assay for inhibitors of human arachidonate 12S-lipoxygenase (ALOX12): Round 2). Settings: purified 12hLO, xylenol orange hydroperoxide absorbance; series mostly up to 108 µM.
Summary of the method: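 Hydroperoxide product was detected by ferrous iron/xylenol orange as the 573 to 405 nm absorbance ratio. Arachidonic acid at 40 uM (final) was turned over for 30 min at room temperature by 150 nM human 12hLO, pH 7.0 Hepes buffer, after 15 min compound preincubation.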
Potency is the fitted concentration of half-maximal effect.

| SMILES | Potency |
| --- | --- |
| Cc1ccc(/C(=N/O)c2oc3ccc4c(C)cc(=O)oc4c3c2-c2ccccc2)cc1 | inconclusive: 50.1 µM [inhibitor, single point] |
| O=C(O)c1cccnc1SC1CC(=O)N(CCc2ccccc2)C1=O (configuration not stated) | inactive |
| C[C@@H](c1ccccc1)N1C(=O)[C@@H]2CN(C(=O)CSc3ccncc3)CCN2C1=O | inconclusive: 50.1 µM [inhibitor, partial curve] |
| Cn1ncc([N+](=O)[O-])c1C(=O)NCc1ccccc1 | inconclusive: 100 µM [inhibitor, single point] |
| CN(C)S(=O)(=O)c1cccc(N=c2scc(-c3ccc4c(c3)NC(=O)CO4)n2CC2CCCO2)c1 (configuration not stated) | inconclusive: 31.6 µM [inhibitor, partial curve] |
| COC(=O)c1ccc(NC(=O)C(NC(=O)c2ccccc2)C(C)C)c(C)c1 (configuration not stated) | inactive |
| COCCNc1ccc(-c2n[nH]c(=O)c3ccccc23)cc1[N+](=O)[O-] | inconclusive: 7.08 µM [inhibitor, full curve, poor fit] |
| CN1c2ccsc2/C(=N/Nc2ccc(F)cc2)CS1(=O)=O | inconclusive: 50.1 µM [inhibitor, partial curve] |
| CC(NCc1ccccc1)C1COc2ccccc2O1 (configuration not stated) | inconclusive: 3.98 µM [inhibitor, partial curve, poor fit] |
| Cc1ccc(-c2csc(Nc3ccc(O)cc3)n2)c(C)c1 | inconclusive: 7.08 µM [inhibitor, full curve, poor fit] |
| Cc1cccc(C)c1-n1nnnc1C(c1ccnc2ccccc12)N(C)Cc1ccccc1 (configuration not stated) | inactive |
| O=C(CSc1nc2cc([N+](=O)[O-])ccc2o1)NC1CC1 | inconclusive: 44.7 µM [inhibitor, partial curve, poor fit] |
| COc1ccccc1OCC(=O)Nc1ccc(N2CCCCC2)cc1 | inconclusive: 44.7 µM [inhibitor, partial curve, poor fit] |
| O=C1NCC(c2ccc(Cl)cc2)Cc2[nH]c(-c3ccc(O)cc3)nc21 (configuration not stated) | inactive |
| COc1ccc(NS(=O)(=O)c2ccc3[nH]c4c(c3c2)CCCC4)cc1Cl | inconclusive: 56.2 µM [inhibitor, partial curve, poor fit] |
| COc1ccc2c(c1)CNC2CS(=O)(=O)NCC(C)C (configuration not stated) | inconclusive: 17.8 µM [inhibitor, single point] |
| COc1cc(OC)c(NC(=O)Cn2c(=O)oc3cc(S(=O)(=O)N4CCCC4)ccc32)cc1Cl | inconclusive: 89.1 µM [inhibitor, partial curve, poor fit] |
| Cc1nn(C)c2nc(NCCCN3CCNC(=O)C3)sc12 | inactive |
| O=C(CN1CSCC1=O)NC(c1ccc(F)cc1)C1CCCC1 (configuration not stated) | inconclusive: 70.8 µM [inhibitor, partial curve, poor fit] |
| O=C(Cn1ncc2c([nH]c3ccccc32)c1=O)NCC1CCN(Cc2ccc(F)cc2)CC1 | inconclusive: 126 µM [inhibitor, partial curve, poor fit] |
| COCCn1c(C)cc(C(=O)COC(=O)c2ccc3c(c2)NC(=O)CS3)c1C | inactive |

| SMILES | Potency |
| --- | --- |
| C=C(C)COc1ccccc1N | inconclusive: 44.7 µM [inhibitor, partial curve] |
| Cc1cc(NC(=O)CSCC(=O)Nc2nc3ccccc3s2)no1 | inconclusive: 112 µM [inhibitor, single point] |
| Cc1ccc(C(C)C)c(OCCNCc2ccccc2)c1 | inconclusive: 0.501 µM [inhibitor, full curve, poor fit] |
| Cn1cc(CCCNS(=O)(=O)c2cccc(C(=O)N3CCCC3)c2)cn1 | inconclusive: 79.4 µM [inhibitor, partial curve, poor fit] |
| O=C1CSC(=S)N1N=Cc1c(O)ccc2ccccc12 | active: 11.2 µM |
| O=C(O)CCCC(=O)N1Cc2ccccc2CC2(CCCCN2CCc2ccccc2)C1 (configuration not stated) | inconclusive: 17.8 µM [inhibitor, partial curve, poor fit] |
| Cc1cc(Cl)ccc1NC(=O)CN(c1ccccc1Br)S(C)(=O)=O | inactive |
| COc1ccc(-c2sc(NC(=O)c3ccc(C)cc3)nc2-c2ccc([N+](=O)[O-])cc2)cc1 | inconclusive: 70.8 µM [inhibitor, partial curve, poor fit] |
| CCN(C(=O)c1cc2c(s1)-c1ccccc1SC2)c1cc(C)ccc1C | inconclusive: 39.8 µM [inhibitor, partial curve] |
| Cc1oc2c(c1C(=O)NC(C)c1ccco1)CN(Cc1ccc(F)cc1)CC2 (configuration not stated) | inconclusive: 11.2 µM [inhibitor, full curve] |
| COc1ccc(NCc2nnc(SCC#N)n2-c2ccccc2OC)cc1 | inconclusive: 10 µM [inhibitor, full curve, poor fit] |
| Cc1ccccc1-c1onc(C)c1C(=O)NCc1cccc(F)c1F | inactive |
| O=C(CNc1cc(S(=O)(=O)N2CCOCC2)ccc1N1CCCC1)Nc1ccc(Cl)cc1F | inconclusive: 112 µM [inhibitor, partial curve, poor fit] |
| CS(=O)(=O)N1CCN(c2ccccc2NC(=S)NC(=O)c2cccs2)CC1 | active: 35.5 µM |
| COCCNC(=O)[C@H]1C[C@H](Oc2ccccc2)CN1C(=O)c1cccs1 | inconclusive: 79.4 µM [inhibitor, single point] |
| O=[N+]([O-])c1cccc(C2Nc3ccccc3CO2)c1 (configuration not stated) | inconclusive: 50.1 µM [inhibitor, full curve, poor fit] |
| CCOc1c2ccc(C(=O)NCC34CC5CC(CC(C5)C3)C4)cc2nn1CC | inconclusive: 44.7 µM [inhibitor, partial curve] |
| COc1ccccc1-c1nc(N(C)C)c2ccccc2n1 | active: 31.6 µM |
| O=C(O)C1(O)CCN(c2ncc(F)c(N3CCOCC3)n2)CC1 | inconclusive: 28.2 µM [inhibitor, partial curve] |
| CCN(CC)C(=O)C1CCN(Cc2ccc(OCc3ccccc3)c(OC)c2)CC1 | inconclusive: 0.501 µM [inhibitor, full curve, poor fit] |
| Cc1ccc(C(=O)NCC(=O)N2CCCC(C(F)(F)F)C2)s1 (configuration not stated) | inconclusive: 126 µM [inhibitor, partial curve, poor fit] |

Rewritten with bars between the fields: part of the list above.
SMILES | Potency
CCOc1c2ccc(C(=O)NCC34CC5CC(CC(C5)C3)C4)cc2nn1CC | inconclusive: 44.7 µM [inhibitor, partial curve]
CCN(CC)C(=O)C1CCN(Cc2ccc(OCc3ccccc3)c(OC)c2)CC1 | inconclusive: 0.501 µM [inhibitor, full curve, poor fit]
